Some entries share one result that the patent states for a list of compounds.
Assays:
Format in all cases: cell-based
[1] = system: gram-positive and gram-negative bacteria, including E. faecalis, E. coli, P. aeruginosa, S. aureus, S. agalactiae, and S. epidermidis; assay: Antibacterial MIC screen, statements on the whole panel
S. Aureus = assay: Minimum inhibitory concentration (MIC) screen, OD 600 nm
Experimental: With compounds 6-9 and the crude degradation mixtures in hand, the minimum inhibitory concentration (MIC) was screened against a number of gram-positive and gram-negative bacteria, including E. faecalis, E. coli, P. aeruginosa, S. aureus, S. agalactiae, and S. epidermidis. To determine the activity, optical density (OD) at 600 nm was measured to estimate the concentration of bacteria at concentrations from 1.6 -100 μM. Values below 0.05 are counted as active and indicates inhibition of growth, illustrated by plotting OD against the concentration for compounds 6-9, (FIG. 9). […] Black stapled lines at 0.05 for MIC and 30% for biofilm formation indicate activity threshold values. […] No activity was observed against the gram-negative bacteria (Table 3).

E. coli = assay: Antimicrobial activity test

Structure (SMILES) | activity against the gram-negative bacteria [1] | antimicrobial activity (S. Aureus) | antimicrobial activity (E. coli)
O=[N+]([O-])c1ccc(F)c(CC(O)CNc2cc(Cl)c(F)c(Cl)c2F)c1F (centres unmarked) [Compound 7, 1-((3,5-Dichloro-2,4-difluorophenyl)amino)-3-(2,6-difluoro-3-nitrophenyl)propan-2-ol] | No activity |  | 
O=[N+]([O-])c1ccc(NCC(O)Cc2ccccc2)cc1 (centres unmarked) [Compound 1] |  | no antimicrobial activity | no antimicrobial activity
O=[N+]([O-])c1ccc(F)c(CC(O)CNc2cc(Cl)c(OC(F)(F)C(F)C(F)(F)F)cc2Cl)c1F (centres unmarked) [Compound 8, 1-((2,5-Dichloro-4-(1,1,2,3,3,3-hexafluoropropoxy)phenyl)amino)-3-(2,6-difluoro-3-nitrophenyl)propan-2-ol] | No activity |  | 
O=[N+]([O-])c1ccc(CC(O)CNc2ccccc2)cc1 (centres unmarked) [Compound 3] |  | no antimicrobial activity | no antimicrobial activity
O=C(NCC(O)CNc1ccc([N+](=O)[O-])cc1)C(Cl)Cl (centres unmarked) [Compound 5] |  | no antimicrobial activity | no antimicrobial activity
O=[N+]([O-])c1cccc(NCC(O)Cc2ccccc2)c1 (centres unmarked) [Compound 2] |  | no antimicrobial activity | no antimicrobial activity
O=[N+]([O-])c1cccc(CC(O)CNc2ccccc2)c1 (centres unmarked) [Compound 4] |  | no antimicrobial activity | no antimicrobial activity
O=[N+]([O-])c1ccc(F)c(CC(O)CNc2cc(Cl)cc(Cl)c2F)c1F (centres unmarked) [Compound 9, 1-((3,5-Dichloro-2-fluorophenyl)amino)-3-(2,6-difluoro-3-nitrophenyl)propan-2-ol] | No activity |  | 
O=[N+]([O-])c1ccc(CC(O)CNc2cc(Cl)c(OC(F)(F)C(F)C(F)(F)F)cc2Cl)cc1 (centres unmarked) [Compound 6] | No activity |  | 
